Experimental data as given in the supplement of paper PMC8728848.
Some of the results follow.

Tests used:
Experiment in all cases: glycan array binding signal (z-score within array); higher = stronger binding
Conditions in all cases: glycan notation: IUPAC condensed, linker removed
[1] = molecular target: Fuc(a1-3)[Gal(b1-4)]GlcNAc(b1-3)Gal(b1-4)[Fuc(a1-3)]GlcNAc
Method in brief: (§1)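 The Consortium for Functional Glycomics database supplied 3228 glycan arrays, of which those lacking an available protein sequence were dropped. The binding signal, a within-array Z-score, was averaged across arrays of the same protein sequence and across linkers. Negative scores can be read as non-binding.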

[2] = molecular target: Fuc(a1-3)[Gal(b1-4)]GlcNAc(b1-3)Gal(b1-4)[Fuc(a1-3)]GlcNAc(b1-3)Gal(b1-4)[Fuc(a1-3)]GlcNAc
Method in brief: as §1

[3] = molecular target: Fuc(a1-3)[Gal(b1-4)]GlcNAc(b1-3)GalNAc
Method in brief: as §1

[4] = molecular target: Fuc(a1-3)[Gal(b1-4)]GlcNAc(b1-6)GalNAc
Method in brief: as §1

[5] = molecular target: Fuc(a1-3)[Gal(b1-4)]GlcNAc(b1-6)[Gal(b1-3)GlcNAc(b1-3)]Gal(b1-4)Glc
Method in brief: as §1

[6] = molecular target: Fuc(a1-3)[Gal(b1-4)]GlcNAc6S
Method in brief: as §1

[7] = molecular target: Fuc(a1-3)[Gal3S(b1-4)]Glc
Method in brief: as §1

[8] = molecular target: Fuc(a1-3)[Gal3S(b1-4)]GlcNAc
Method in brief: as §1

[9] = molecular target: Fuc(a1-3)[Gal3S(b1-4)]GlcNAc6S
Method in brief: as §1

[10] = molecular target: Fuc(a1-3)[GalNAc(b1-4)]GlcNAc
Method in brief: as §1

[11] = molecular target: Fuc(a1-3)[GalNAc(b1-4)]GlcNAc6S
Method in brief: as §1

Fuc(a1-4)GlcNAc = molecular target: Fuc(a1-4)GlcNAc
Method in brief: as §1

Fuc(b1-3)GlcNAc = molecular target: Fuc(b1-3)GlcNAc
Method in brief: as §1

Gal(a1-2)Gal = molecular target: Gal(a1-2)Gal
Method in brief: as §1

Gal(a1-3)Gal = molecular target: Gal(a1-3)Gal
Method in brief: as §1

Gal(a1-3)Gal(b1-3)GlcNAc = molecular target: Gal(a1-3)Gal(b1-3)GlcNAc
Method in brief: as §1

[12] = molecular target: Gal(a1-3)Gal(b1-3)GlcNAc(b1-2)Man
Method in brief: as §1

[13] = molecular target: Gal(a1-3)Gal(b1-3)GlcNAc(b1-2)Man(a1-3)[Gal(a1-3)Gal(b1-3)GlcNAc(b1-2)Man(a1-6)]Man(b1-4)GlcNAc(b1-4)GlcNAc
Method in brief: as §1

[14] = molecular target: Gal(a1-3)Gal(b1-3)GlcNAc(b1-3)GalNAc
Method in brief: as §1

[15] = molecular target: Gal(a1-3)Gal(b1-3)GlcNAc(b1-6)GalNAc
Method in brief: as §1

[16] = molecular target: Gal(a1-3)Gal(b1-3)[Fuc(a1-4)]GlcNAc(b1-2)Man(a1-3)[Gal(a1-3)Gal(b1-3)[Fuc(a1-4)]GlcNAc(b1-2)Man(a1-6)]Man(b1-4)GlcNAc(b1-4)GlcNAc
Method in brief: as §1

Gal(a1-3)Gal(b1-4)Glc = molecular target: Gal(a1-3)Gal(b1-4)Glc
Method in brief: as §1

Gal(a1-3)Gal(b1-4)GlcNAc = molecular target: Gal(a1-3)Gal(b1-4)GlcNAc
Method in brief: as §1

[17] = molecular target: Gal(a1-3)Gal(b1-4)GlcNAc(b1-2)Man
Method in brief: as §1

[18] = molecular target: Gal(a1-3)Gal(b1-4)GlcNAc(b1-2)Man(a1-3)[Gal(a1-3)Gal(b1-4)GlcNAc(b1-2)Man(a1-6)]Man(b1-4)GlcNAc(b1-4)GlcNAc
Method in brief: as §1

[19] = molecular target: Gal(a1-3)Gal(b1-4)GlcNAc(b1-3)GalNAc
Method in brief: as §1

[20] = molecular target: Gal(a1-3)Gal(b1-4)GlcNAc(b1-6)GalNAc
Method in brief: as §1

[21] = molecular target: Gal(a1-3)Gal(b1-4)[Fuc(a1-3)]GlcNAc
Method in brief: as §1

[22] = molecular target: Gal(a1-3)Gal(b1-4)[Fuc(a1-3)]GlcNAc(b1-2)Man(a1-3)[Gal(a1-3)Gal(b1-4)[Fuc(a1-3)]GlcNAc(b1-2)Man(a1-6)]Man(b1-4)GlcNAc(b1-4)GlcNAc
Method in brief: as §1

Gal(a1-3)GalNAc = molecular target: Gal(a1-3)GalNAc
Method in brief: as §1

[23] = molecular target: Gal(a1-3)[Gal(a1-4)]Gal(b1-4)GlcNAc
Method in brief: as §1

[24] = molecular target: Gal(a1-4)Gal(b1-3)GlcNAc(b1-2)Man(a1-3)[Gal(a1-4)Gal(b1-3)GlcNAc(b1-2)Man(a1-6)]Man(b1-4)GlcNAc(b1-4)GlcNAc
Method in brief: as §1

Gal(a1-4)Gal(b1-4)Glc = molecular target: Gal(a1-4)Gal(b1-4)Glc
Method in brief: as §1

Gal(a1-4)Gal(b1-4)GlcNAc = molecular target: Gal(a1-4)Gal(b1-4)GlcNAc
Method in brief: as §1

[25] = molecular target: Gal(a1-4)Gal(b1-4)GlcNAc(b1-2)Man(a1-3)[Gal(a1-4)Gal(b1-4)GlcNAc(b1-2)Man(a1-6)]Man(b1-4)GlcNAc(b1-4)GlcNAc
Method in brief: as §1

[26] = molecular target: Gal(a1-4)Gal(b1-4)GlcNAc(b1-3)Gal(b1-4)Glc
Method in brief: as §1

Gal(a1-4)GlcNAc = molecular target: Gal(a1-4)GlcNAc
Method in brief: as §1

Gal(a1-6)Glc = molecular target: Gal(a1-6)Glc
Method in brief: as §1

B1: EUL D1A (Oryza sativa) (protein)
chain: MFGFGHHHNQAPAAPSDPNQIFKIFCRANENYCLTVRDSAVVLAPVNPKDEHQHWFKDMRFSTKVKDGEGMPAFALVNKATGLAVKHSLGQSHPVKLVPFNPEYEDASVLWTESKDVGKGFRCIRMVNNTRLNLDAFHGDKDHGGVRDGTTVVLWEWCKGDNQSWKILPWGPEAHSSSPGAATACTIGGVPVHTVRVFSAAGEDYCLTVRNGTACLAPKNPRDDYQHWIKDMRHSNKIRDEEGYPAFALVNKVTGEAIKHSTGQGHPVKLVPYNPEYQDESVLWTESKDVGKGFRCIRMVNNIYLNFDAFHGDKDHGGIHDGTEIVLWKWCEGDNQRWKILPWILEQKLISEEDLNSAVDHHHHHH
glycan array binding signal (z-score) [1]: 0.586 | glycan array binding signal (z-score) [2]: -0.849 | glycan array binding signal (z-score) [3]: -0.949 | glycan array binding signal (z-score) [4]: 2.13 | glycan array binding signal (z-score) [5]: -0.827 | glycan array binding signal (z-score) [6]: -0.005 | glycan array binding signal (z-score) [7]: 0.24 | glycan array binding signal (z-score) [8]: 1.85 | glycan array binding signal (z-score) [9]: 1.49 | glycan array binding signal (z-score) [10]: 0.169 | glycan array binding signal (z-score) [11]: -0.319 | glycan array binding signal (z-score) (Fuc(a1-4)GlcNAc): 0.048 | glycan array binding signal (z-score) (Fuc(b1-3)GlcNAc): 0.076 | glycan array binding signal (z-score) (Gal(a1-2)Gal): -1.3 | glycan array binding signal (z-score) (Gal(a1-3)Gal): -0.038 | glycan array binding signal (z-score) (Gal(a1-3)Gal(b1-3)GlcNAc): -1.66 | glycan array binding signal (z-score) [12]: 0.221 | glycan array binding signal (z-score) [13]: 1.86 | glycan array binding signal (z-score) [14]: -0.23 | glycan array binding signal (z-score) [15]: 0.418 | glycan array binding signal (z-score) [16]: 1.51 | glycan array binding signal (z-score) (Gal(a1-3)Gal(b1-4)Glc): -0.021 | glycan array binding signal (z-score) (Gal(a1-3)Gal(b1-4)GlcNAc): -0.8 | glycan array binding signal (z-score) [17]: 0.232 | glycan array binding signal (z-score) [18]: 0.16 | glycan array binding signal (z-score) [19]: -1.15 | glycan array binding signal (z-score) [20]: 1.3 | glycan array binding signal (z-score) [21]: -0.6 | glycan array binding signal (z-score) [22]: 1.75 | glycan array binding signal (z-score) (Gal(a1-3)GalNAc): 0.239 | glycan array binding signal (z-score) [23]: 0.063 | glycan array binding signal (z-score) [24]: 1.15 | glycan array binding signal (z-score) (Gal(a1-4)Gal(b1-4)Glc): 0.086 | glycan array binding signal (z-score) (Gal(a1-4)Gal(b1-4)GlcNAc): 0.656 | glycan array binding signal (z-score) [25]: -0.078 | glycan array binding signal (z-score) [26]: -1.06 | glycan array binding signal (z-score) (Gal(a1-4)GlcNAc): 0.202 | glycan array binding signal (z-score) (Gal(a1-6)Glc): -0.051
